PubChem BioAssay AID1671195 – Yale University | 2021
Test: 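Knockdowns that increase or decrease uptake of fluorescent LDL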 (primary screen). System: human Huh7 hepatoma cells. Reagents: siRNA pool against human genes, 18 nM. Duration: about 2 to 2.5 days of knockdown, then 8 h LDL uptake. Treatment: DiI-labelled LDL at 30 µg/ml for 8 h, in lipoprotein-deficient serum medium. Read-out: 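Fluorescent LDL signal imaged in cells, scaled to the plate median, robust z-score for each replicate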. Scale: robust z-score: higher = more LDL uptake after knockdown. Call rule: 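a gene counts as active if at least two replicate z-scores exceed ±2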.
Shown is one part, drawn at random, of about 22,000 reagents tested. About 1,510 of them (6.9%) were called active. 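Active includes knockdowns raising or lowering LDL uptake; positive z-scores mean more uptake, negative mean less.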 Reagents against one gene are numbered here.

target gene,pool no.,"robust z-score, replicate 1","robust z-score, replicate 2","robust z-score, replicate 3",outcome
PIDD1,1,1.72,-0.245,2.3,inactive
CAMK2N2,1,0.901,1.09,2.19,inactive
AHCY,1,0.072,-0.0256,-0.297,inactive
GZMA,1,0.688,2.09,1.19,inactive
HOXC5,1,0.631,0.573,1.16,inactive
LIMCH1,1,0.652,0.231,0.508,inactive
H3-3A,1,1.18,-0.0982,0.934,inactive
VCL,1,-0.82,-1.19,-1.07,inactive
ZNF426,1,-2,-2.17,-1.9,active
PLCH1,1,0.452,-0.0438,-0.503,inactive
COPA,1,-1.29,-1.95,-2.11,active
SYNJ1,1,2.1,1.92,2.44,active
ADPRHL1,1,0.568,0.828,0.65,inactive
ADPRHL1,2,0.319,0.522,0.961,inactive
STX7,1,-1.12,-1.16,-0.883,inactive
GCLC,1,-0.0305,1.35,1.41,inactive
LOC391776 (retired record),1,-0.305,-0.338,0.279,inactive
THBS2,1,-0.664,-0.731,0.108,inactive
ZNF33B,1,-0.794,-0.532,-0.815,inactive
RPS8,1,-0.991,-1.57,-0.173,inactive
LOC442220 (retired record),1,0.197,0.264,-0.138,inactive
SWAP70,1,-0.727,-0.0132,-0.584,inactive
CCNF,1,-0.125,1.13,0.0528,inactive
MIATNB,1,-0.218,0.136,-0.224,inactive
FER1L5,1,0.391,-0.118,-0.0139,inactive
FOXQ1,1,2.27,2.36,3.18,active
FLVCR2,1,-0.193,-0.0501,0.264,inactive
GEMIN6,1,0.622,0.347,0.963,inactive

Sorted by “robust z-score, replicate 3” (high to low): some entries from above
target gene,pool no.,"robust z-score, replicate 1","robust z-score, replicate 2","robust z-score, replicate 3",outcome
ADPRHL1,2,0.319,0.522,0.961,inactive
ADPRHL1,1,0.568,0.828,0.65,inactive
STX7,1,-1.12,-1.16,-0.883,inactive
